# No constants are given. Whether binding was seen depends on the method and setting. In cells and extracts the contact can be indirect. A yes stands for co-enrichment or nearness to the bait. Other partners may have been found.
# By UniProt entry, the sequences of proteins in these tests, tags left out.
# UniProt Q9Y696: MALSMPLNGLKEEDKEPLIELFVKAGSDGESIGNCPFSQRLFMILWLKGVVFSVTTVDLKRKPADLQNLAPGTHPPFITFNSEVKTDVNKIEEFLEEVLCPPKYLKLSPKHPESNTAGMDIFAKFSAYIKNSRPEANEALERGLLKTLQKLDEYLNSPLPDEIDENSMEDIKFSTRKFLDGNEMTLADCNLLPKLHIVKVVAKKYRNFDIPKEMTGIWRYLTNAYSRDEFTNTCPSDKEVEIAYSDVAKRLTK
# UniProt Q9Y2X7: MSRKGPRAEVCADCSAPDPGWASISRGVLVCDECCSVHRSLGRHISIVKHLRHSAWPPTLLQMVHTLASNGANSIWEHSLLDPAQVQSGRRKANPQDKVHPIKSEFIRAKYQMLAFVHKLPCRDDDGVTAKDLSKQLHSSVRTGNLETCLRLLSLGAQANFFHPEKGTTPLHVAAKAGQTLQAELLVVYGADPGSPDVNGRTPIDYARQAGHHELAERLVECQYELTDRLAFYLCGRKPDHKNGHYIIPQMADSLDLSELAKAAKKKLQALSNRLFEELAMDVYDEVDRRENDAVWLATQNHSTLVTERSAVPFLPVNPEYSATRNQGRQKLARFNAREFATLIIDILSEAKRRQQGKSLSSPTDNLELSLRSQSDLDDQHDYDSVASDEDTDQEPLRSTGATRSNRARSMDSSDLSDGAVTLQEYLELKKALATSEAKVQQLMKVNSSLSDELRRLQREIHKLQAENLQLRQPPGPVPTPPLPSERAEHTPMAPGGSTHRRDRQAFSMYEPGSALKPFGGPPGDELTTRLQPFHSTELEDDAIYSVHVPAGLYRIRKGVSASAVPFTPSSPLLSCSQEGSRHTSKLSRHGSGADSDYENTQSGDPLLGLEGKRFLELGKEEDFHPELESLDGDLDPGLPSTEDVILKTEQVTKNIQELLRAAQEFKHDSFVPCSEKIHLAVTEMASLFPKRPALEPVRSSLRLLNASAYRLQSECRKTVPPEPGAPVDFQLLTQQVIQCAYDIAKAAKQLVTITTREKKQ
# UniProt Q04206: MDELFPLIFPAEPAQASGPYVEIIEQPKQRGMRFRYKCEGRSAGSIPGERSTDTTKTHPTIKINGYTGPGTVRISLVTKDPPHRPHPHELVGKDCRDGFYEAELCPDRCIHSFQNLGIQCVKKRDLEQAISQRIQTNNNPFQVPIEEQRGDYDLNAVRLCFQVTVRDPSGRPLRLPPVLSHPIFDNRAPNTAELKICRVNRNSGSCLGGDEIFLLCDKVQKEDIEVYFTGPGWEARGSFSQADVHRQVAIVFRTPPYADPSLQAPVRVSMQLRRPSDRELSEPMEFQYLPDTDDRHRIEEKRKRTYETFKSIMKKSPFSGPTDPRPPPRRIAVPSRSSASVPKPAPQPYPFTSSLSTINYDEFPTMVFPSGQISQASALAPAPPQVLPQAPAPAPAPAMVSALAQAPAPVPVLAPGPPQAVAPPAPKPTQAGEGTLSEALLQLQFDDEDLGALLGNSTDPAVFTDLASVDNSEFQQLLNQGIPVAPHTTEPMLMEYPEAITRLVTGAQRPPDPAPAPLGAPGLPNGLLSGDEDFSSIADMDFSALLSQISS
# Target: hemagglutinin-tagged CLIC4 (chloride intracellular channel 4) (UniProt Q9Y696)
# Experiment: affinity purification with mass spectrometry; hemagglutinin-tagged CLIC4 purified with a hemagglutinin-tagged protein purification kit from lysates of HPAECs 24 h after infection with AdCLIC4; SDS-PAGE, in-gel digestion, nano-LC-MS/MS; only proteins unique to the hemagglutinin-tag purification fraction listed
row,Molecule,binding
1,"GIT1 (G-protein-coupled receptor kinase-interacting protein 1), endogenous (from UniProt Q9Y2X7 1-761)",binds
2,p65NF-kB (from UniProt Q04206 1-551),binds
3,"GIT2 (protein, UniProt Q14161 1-759) MSKRLRSSEVCADCSGPDPSWASVNRGTFLCDECCSVHRSLGRHISQVRHLKHTPWPPTLLQMVETLYNNGANSIWEHSLLDPASIMSGRRKANPQDKVHPNKAEFIRAKYQMLAFVHRLPCRDDDSVTAKDLSKQLHSSVRTGNLETCLRLLSLGAQANFFHPEKGNTPLHVASKAGQILQAELLAVYGADPGTQDSSGKTPVDYARQGGHHELAERLVEIQYELTDRLAFYLCGRKPDHKNGQHFIIPQMADSSLDLSELAKAAKKKLQSLSNHLFEELAMDVYDEVDRRETDAVWLATQNHSALVTETTVVPFLPVNPEYSSTRNQGRQKLARFNAHEFATLVIDILSDAKRRQQGSSLSGSKDNVELILKTINNQHSVESQDNDQPDYDSVASDEDTDLETTASKTNRQKSLDSDLSDGPVTVQEFMEVKNALVASEAKIQQLMKVNNNLSDELRIMQKKLQTLQSENSNLRKQATTNVYQVQTGSEYTDTSNHSSLKRRPSARGSRPMSMYETGSGQKPYLPMGEASRPEESRMRLQPFPAHIGRSALVTSSSSLPSFPSTLSWSRDESARRASRLEKQNSTPESDYDNTPNDMEPDGMGSSRKGRQRSMVWPGDGLVPDTAEPHVAPSPTLPSTEDVIRKTEQITKNIQELLRAAQENKHDSYIPCSERIHVAVTEMAALFPKKPKSDMVRTSLRLLTSSAYRLQSECKKTLPGDPGSPTDVQLVTQQVIQCAYDIAKAAKQLVTITTKENNN",binds
4,"ubiquitin conjugation factor E4 A (protein, UniProt Q14139 1-1066) MTDQENNNNISSNPFAALFGSLADAKQFAAIQKEQLKQQSDELPASPDDSDNSVSESLDEFDYSVAEISRSFRSQQEICEQLNINHMIQRIFLITLDNSDPSLKSGNGIPSRCVYLEEMAVELEDQDWLDMSNVEQALFARLLLQDPGNHLINMTSSTTLNLSADRDAGERHIFCYLYSCFQRAKEEITKVPENLLPFAVQCRNLTVSNTRTVLLTPEIYVDQNIHEQLVDLMLEAIQGAHFEDVTEFLEEVIEALILDEEVRTFPEVMIPVFDILLGRIKDLELCQILLYAYLDILLYFTRQKDMAKVFVEYIQPKDPTNGQMYQKTLLGVILSISCLLKTPGVVENHGYFLNPSRSSPQEIKVQEANIHQFMAQFHEKIYQMLKNLLQLSPETKHCILSWLGNCLHANAGRTKIWANQMPEIFFQMYASDAFFLNLGAALLKLCQPFCKPRSSRLLTFNPTYCALKELNDEERKIKNVHMRGLDKETCLIPAVQEPKFPQNYNLVTENLALTEYTLYLGFHRLHDQMVKINQNLHRLQVAWRDAQQSSSPAADNLREQFERLMTIYLSTKTAMTEPQMLQNCLNLQVSMAVLLVQLAIGNEGSQPIELTFPLPDGYSSLAYVPEFFADNLGDFLIFLRRFADDILETSADSLEHVLHFITIFTGSIERMKNPHLRAKLAEVLEAVMPHLDQTPNPLVSSVFHRKRVFCNFQYAPQLAEALIKVFVDIEFTGDPHQFEQKFNYRRPMYPILRYMWGTDTYRESIKDLADYASKNLEAMNPPLFLRFLNLLMNDAIFLLDEAIQYLSKIKIQQIEKDRGEWDSLTPEARREKEAGLQMFGQLARFHNIMSNETIGTLAFLTSEIKSLFVHPFLAERIISMLNYFLQHLVGPKMGALKVKDFSEFDFKPQQLVSDICTIYLNLGDEENFCATVPKDGRSYSPTLFAQTVRVLKKINKPGNMIMAFSNLAERIKSLADLQQQEEETYADACDEFLDPIMSTLMCDPVVLPSSRVTVDRSTIARHLLSDQTDPFNRSPLTMDQIRPNTELKEKIQRWLAERKQQKEQLE",binds
